Test results taken from patent US20170296617A1.
These are yes or no findings as the source states them, for the method shown. Some binding calls cover weakened binding; strength is not graded here.

Chains of the proteins cited; added tags and fusions are not shown. Residues count along the entry.
UniProt Q13464, residues 1-415: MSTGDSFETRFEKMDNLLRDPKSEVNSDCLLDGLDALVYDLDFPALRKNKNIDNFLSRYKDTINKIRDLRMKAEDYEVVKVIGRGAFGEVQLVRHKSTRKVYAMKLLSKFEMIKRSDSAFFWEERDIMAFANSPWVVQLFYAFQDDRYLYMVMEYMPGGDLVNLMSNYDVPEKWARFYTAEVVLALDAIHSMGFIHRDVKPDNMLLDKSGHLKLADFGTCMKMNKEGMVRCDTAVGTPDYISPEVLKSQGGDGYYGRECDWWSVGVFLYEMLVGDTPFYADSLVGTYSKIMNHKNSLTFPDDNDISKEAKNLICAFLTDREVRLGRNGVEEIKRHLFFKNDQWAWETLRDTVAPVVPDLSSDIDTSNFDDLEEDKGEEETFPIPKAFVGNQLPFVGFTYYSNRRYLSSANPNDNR
UniProt O75116, residues 5-554: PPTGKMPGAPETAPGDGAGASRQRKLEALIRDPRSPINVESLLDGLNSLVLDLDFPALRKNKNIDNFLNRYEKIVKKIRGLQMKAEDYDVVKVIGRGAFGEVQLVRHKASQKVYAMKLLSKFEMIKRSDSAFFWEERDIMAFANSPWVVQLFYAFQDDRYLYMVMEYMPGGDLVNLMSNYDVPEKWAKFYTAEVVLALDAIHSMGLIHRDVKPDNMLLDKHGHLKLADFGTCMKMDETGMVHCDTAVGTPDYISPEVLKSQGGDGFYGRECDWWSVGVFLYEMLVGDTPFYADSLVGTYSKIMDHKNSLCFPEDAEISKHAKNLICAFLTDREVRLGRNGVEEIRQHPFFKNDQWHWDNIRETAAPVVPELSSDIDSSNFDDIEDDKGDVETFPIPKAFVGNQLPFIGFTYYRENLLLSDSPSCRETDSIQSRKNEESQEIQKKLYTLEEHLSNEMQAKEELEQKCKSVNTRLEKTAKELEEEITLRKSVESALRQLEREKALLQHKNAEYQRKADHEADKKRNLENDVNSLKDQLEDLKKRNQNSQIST

Key:
[1] = target: ROCK1 kinase catalytic domain (UniProt Q13464); test: STD-NMR
ROCK2 = ROCK2 (UniProt O75116); test: SPR (BiaCore)
[2] = target: MBP-ROCK1 (ROCK1 catalytic domain linked to maltose binding protein) (UniProt Q13464); test: DFDNB cross-linking, trypsin digestion, MALDI-TOF-MS

Measured: binding

ERTYSPSTAVRS [peptide25 (…)]
binds: all assays above
